These results are taken from PubChem BioAssay AID2685 (National Center for Advancing Translational Sciences (NCATS), 2010).

The nature of this experiment: qHTS Assay for Lipid Storage Modulators in Drosophila S3 Cells.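 For cell number change: cells counted by Cell Tracker Red CMTPX staining in the red channel.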 The conditions noted are these: BODIPY lipid droplet fluorescence, 18-24 h; for cell number change: measured here: cell count max response, cells fed with added oleic acid. Summed up:
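Drosophila S3 cells got compounds at several concentrations plus oleic acid (400 uM solution). Laser-scanning cytometry with 488 nm excitation read lipid droplets at 500-530 nm and cells at 575-640 nm. Percent activity was relative to 20 uM Triacsin C.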

The mark [1] stands for this setting: measured here: lipid fluorescence (Fed channel) AC50, cells fed with added oleic acid.
Setting [2] is: measured here: cell number channel AC50, cells fed with added oleic acid.

SMILES strings stand for the structures. Some of the results follow. Further columns of the screen follow, without active or inactive calls. Most of these compounds were active or inconclusive in the main read-out, so they are no random draw. Words in brackets tell the shape of the fitted curve; partial curves, single points and poor fits give uncertain potencies.

Turning to `COc1ccccc1C(=O)NCCC(=O)Nc1ncccc1O`, the cell number change was -5.63%. In addition, under setting [1], the AC50 was 23.1 µM [falling, partial curve, poor fit].
As to `Cc1csc(Nc2nc(N)c(C(=O)Nc3ccccc3)o2)n1`, the cell number change is -60.9%. Further, the AC50 under setting [2] was 16.4 µM [falling, partial curve]. Moreover, the AC50 under setting [1] was 13 µM [falling, partial curve].
Consider `COc1cccc(N2CCN(C(=S)Nc3cc(C)cc(C)c3)CC2)c1`, for which the cell number change is -22.6%. Further, the AC50 under setting [1] was 0.651 µM [falling, full curve, poor fit].
As for `CCCN1CCC(NCc2cn(C)nc2-c2ccc(Oc3ccccc3)cc2)CC1`, the cell number change turned out to be 5.03%. In addition, the AC50 under setting [1] was 6.51 µM [falling, single point].
Take `COc1cc(OC)cc(C(=O)N2CCN(C3CCN(Cc4ccccc4)CC3)CC2)c1`: the cell number change is -0.87%. Further, the AC50 under setting [2] was 0.651 µM [falling, full curve, poor fit]. For the same compound, the AC50 under setting [1] was 2.06 µM [falling, partial curve].
In the case of `COC(=O)[C@H](CCSC)NC(=O)N1CCC(C)CC1`, the cell number change was -10.2%. Besides, the AC50 under setting [1] was 1.84 µM [falling, full curve].
In the case of `O=[N+]([O-])c1ccc(OCC(O)CN(CCO)CCO)cc1` (configuration not stated), the cell number change is -16.9%. Further, the AC50 under setting [2] is 2.59 µM [rising, partial curve, poor fit].
On to `COc1ccc(S(=O)(=O)N2CCC(C(=O)Nc3ccc(S(=O)(=O)N4CCCC4)cc3)CC2)cc1OC`, for which the cell number change was 33.3%. Moreover, the AC50 under setting [2] is 11.6 µM [rising, partial curve, poor fit]. Moreover, the AC50 under setting [1] is 14.6 µM [rising, partial curve, poor fit].
Turning to `Nc1cccc(-c2cn3cccnc3n2)c1`, the cell number change worked out at 2.76%. Under setting [2], the AC50 was 0.116 µM [falling, full curve, poor fit].
`Cn1c(SCC(=O)Nc2ccccc2F)nc2c(c1=O)SCC2`: the cell number change was -42.5%. The AC50 under setting [2] was 16.4 µM [falling, partial curve, poor fit]. Also, the AC50 under setting [1] was 11.6 µM [falling, partial curve, poor fit].
As for `COC(=O)Cn1c(=NC(=O)c2ccc(S(=O)(=O)N3CCc4ccccc4C3)cc2)sc2cc(OC)ccc21`, the cell number change amounted to 29.3%.
Take `O=C(NNC(=S)Nc1ccccc1)c1cccc(S(=O)(=O)N2CCOCC2)c1`: the cell number change was -15%.
In the case of `Cc1ccc(S(=O)(=O)NC(=O)Nc2ccc(C)cn2)cc1`, the cell number change was found to be 13.3%. The AC50 under setting [1] is 0.326 µM [falling, full curve, poor fit].
`O=C(Nc1cc(C(F)(F)F)ccc1N1CCOCC1)C1CC1`: the cell number change was -3.37%. Besides, the AC50 under setting [1] is 4.11 µM [rising, single point].
`CCCCOC(=O)Cn1cnc2ccc(Br)cc2c1=O`: the cell number change is -21.3%. Further, the AC50 under setting [1] is 0.00517 µM [falling, full curve, poor fit].
